The list shows a part of the results. Single values are uncertain, as repeats are few or missing.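 Cells were imaged in 1,536-well plates, and nuclei stained with an antibody against cleaved PARP were counted against all DNA-stained nuclei to give the apoptosis fraction. Screening doses were chosen to leave most cells alive, and resting and induced cleaved-PARP levels differ strongly between cell lines.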
Assays:
Experiment in all cases: cleaved PARP positive nuclei fraction relative to DMSO control; melanoma cells; higher = more apoptosis
Settings in all cases: library dose: low library concentration; 72 h
MZ2-MEL = system: MZ2-MEL
MeWo = system: MeWo
RPMI7951 = system: RPMI7951
RVH-421 = system: RVH-421
SkMel28 = system: SkMel28
SkMel2 = system: SkMel2
SkMel30 = system: SkMel30
UACC62 = system: UACC62
SkMel5 = system: SkMel5
UACC257 = system: UACC257

| Structure (SMILES) | cleaved PARP positive nuclei fraction (MZ2-MEL) [%] | cleaved PARP positive nuclei fraction (MeWo) [%] | cleaved PARP positive nuclei fraction (RPMI7951) [%] | cleaved PARP positive nuclei fraction (RVH-421) [%] | cleaved PARP positive nuclei fraction (SkMel28) [%] | cleaved PARP positive nuclei fraction (SkMel2) [%] | cleaved PARP positive nuclei fraction (SkMel30) [%] | cleaved PARP positive nuclei fraction (UACC62) [%] | cleaved PARP positive nuclei fraction (SkMel5) [%] | cleaved PARP positive nuclei fraction (UACC257) [%] |
| --- | --- | --- | --- | --- | --- | --- | --- | --- | --- | --- |
| O=C(/C=C/c1cccnc1)NCCCCC1CCN(C(=O)c2ccccc2)CC1 + Cn1cc(C2=C(c3cn(C4CCN(Cc5ccccn5)CC4)c4ccccc34)C(=O)NC2=O)c2ccccc21 [Enzastaurin] (first compound 0.01 µM, partner dose 0.8 µM) | 110 | 120 | 53.5 | 243 | 84.4 | 2040 | 50.2 | 37.2 |  |  |
| Cc1cc(Nc2cc(N3CCN(C)CC3)nc(Sc3ccc(NC(=O)C4CC4)cc3)n2)n[nH]1 [Tozasertib] + C/C(O)=C(\C#N)C(=O)Nc1cc(Br)ccc1Br [LFM-A13] (first compound 0.006 µM, partner dose 2 µM) | 119 | 265 | 84.9 | 170 | 168 | 97 | 148 | 218 | 161 | 83.2 |
| Cc1cc(Nc2cc(N3CCN(C)CC3)nc(Sc3ccc(NC(=O)C4CC4)cc3)n2)n[nH]1 [Tozasertib] + O=C(Oc1ccc([N+](=O)[O-])cc1)N1CCC(C(O)(c2ccc3c(c2)OCO3)c2ccc3c(c2)OCO3)CC1 [JZL184] (first compound 0.006 µM, partner dose 1 µM) | 151 | 116 | 60.8 | 65.7 | 153 | 121 | 446 | 88.9 | 78.8 | 73.1 |
| C=C(c1ccc(C(=O)O)cc1)c1cc2c(cc1C)C(C)(C)CCC2(C)C [Bexarotene] + C/C(O)=C(\C#N)C(=O)Nc1cc(Br)ccc1Br [LFM-A13] (first compound 2 µM, partner dose 2 µM) | 97.5 | 91.5 | 41.6 | 78.9 | 252 | 97.6 | 83.5 | 130 | 83 | 87.3 |
| C=CCNC1=C2C[C@@H](C)C[C@H](OC)[C@H](O)[C@@H](C)/C=C(\C)[C@H](OC(N)=O)[C@@H](OC)/C=C\C=C(/C)C(=O)NC(=CC1=O)C2=O [Tanespimycin] + O=C(Oc1ccc([N+](=O)[O-])cc1)N1CCC(C(O)(c2ccc3c(c2)OCO3)c2ccc3c(c2)OCO3)CC1 [JZL184] (first compound 0.002 µM, partner dose 1 µM) | 133 | 43 | 94.6 | 30.8 | 129 | 41.3 | 24.4 | 181 | 79.2 | 101 |
| OCc1c[nH]c2ccccc12 [Indole-3-carbinol] + C/C(O)=C(\C#N)C(=O)Nc1cc(Br)ccc1Br [LFM-A13] (first compound 0.8 µM, partner dose 2 µM) | 123 | 230 | 26.3 | 118 | 78.2 | 182 | 50.8 | 151 | 462 | 8.66 |
| Cn1cc(C2=C(c3cn(C4CCN(Cc5ccccn5)CC4)c4ccccc34)C(=O)NC2=O)c2ccccc21 [Enzastaurin] + Cn1c(Nc2ccc(C(F)(F)F)cc2)nc2cc(Oc3ccnc(-c4ncc(C(F)(F)F)[nH]4)c3)ccc21 [CHIR265] (first compound 0.8 µM, partner dose 0.08 µM) | 96.9 | 85.7 | 79.4 | 177 | 101 | 141 | 100 | 116 |  |  |
| C[C@@H](Oc1cc(-c2cnn(C3CCNCC3)c2)cnc1N)c1c(Cl)ccc(F)c1Cl [Crizotinib] + Cc1cc(SCc2sc(-c3ccc(C(F)(F)F)c(F)c3)nc2C)ccc1OCC(=O)O [GW0742] (first compound 0.2 µM, partner dose 2 µM) | 58.4 | 124 | 65.4 | 39.9 | 204 | 154 | 46 | 93.9 | 159 | 132 |
| O=C(Nc1cc(C(F)(F)F)cc(C(F)(F)F)c1)c1cc(Cl)ccc1O + Cn1cc(C2=C(c3cn(C4CCN(Cc5ccccn5)CC4)c4ccccc34)C(=O)NC2=O)c2ccccc21 [Enzastaurin] (first compound 0.016 µM, partner dose 0.8 µM) | 52.8 | 116 | 55.3 | 48.9 | 127 | 130 | 48.3 | 42.8 |  |  |
| N.N.[Cl][Pt][Cl] [cisplatin] + CC(C)CCN1c2nc(Nc3cc(F)c(O)c(F)c3)ncc2N(C)C(=O)C1C [BID1870] (first compound 1.6 µM, partner dose 0.2 µM) | 64 | 118 | 67.6 | 204 | 238 | 43.7 | 73.6 | 74.7 | 73.4 | 68.5 |
| C[As](C)SC[C@H](NC(=O)CC[C@H](N)C(=O)O)C(=O)NCC(=O)O [Darinaparsin] + Nc1cccc2c1CN(C1CCC(=O)NC1=O)C2=O [lenalidomide] (first compound 0.4 µM, partner dose 1 µM) | 138 | 125 | 73.4 | 79.7 | 79.2 | 121 | 213 | 188 |  |  |
| N.N.[Cl][Pt][Cl] [cisplatin] + O=C(Nc1ccccc1)c1cc([N+](=O)[O-])ccc1Cl [GW9662] (first compound 1.6 µM, partner dose 2 µM) | 225 | 199 | 73.8 | 88.3 | 153 | 82.9 | 84.3 | 264 | 177 | 115 |
| COc1cc([C@@H]2c3cc4c(cc3[C@@H](O[C@@H]3O[C@@H]5CO[C@@H](C)O[C@H]5[C@H](O)[C@H]3O)[C@H]3COC(=O)[C@H]23)OCO4)cc(OC)c1O [etoposide] + Cc1cc(SCc2sc(-c3ccc(C(F)(F)F)c(F)c3)nc2C)ccc1OCC(=O)O [GW0742] (first compound 0.02 µM, partner dose 2 µM) | 191 | 137 | 29.9 | 167 | 15.9 | 105 | 45.9 | 70.4 | 138 | 91.8 |
| O=c1[nH]nc(Sc2ncc([N+](=O)[O-])s2)n1-c1ccc2c(c1)OCCO2 + Cc1cc(SCc2sc(-c3ccc(C(F)(F)F)c(F)c3)nc2C)ccc1OCC(=O)O [GW0742] (first compound 0.2 µM, partner dose 2 µM) | 98.1 | 38.5 | 55.2 | 202 | 129 | 81.3 | 15.4 | 325 | 39.1 | 181 |
| COc1ccc(C2=N[C@@H](c3ccc(Cl)cc3)[C@@H](c3ccc(Cl)cc3)N2C(=O)N2CCNC(=O)C2)c(OC(C)C)c1 [Nutlin-3] + O=C(Oc1ccc([N+](=O)[O-])cc1)N1CCC(C(O)(c2ccc3c(c2)OCO3)c2ccc3c(c2)OCO3)CC1 [JZL184] (first compound 0.1 µM, partner dose 1 µM) | 225 | 24.8 | 143 | 76.1 | 118 | 177 | 196 | 78.1 | 91.3 | 133 |

Another view of part of the listing above.
Structure (SMILES),cleaved PARP positive nuclei fraction (MZ2-MEL) [%],cleaved PARP positive nuclei fraction (MeWo) [%],cleaved PARP positive nuclei fraction (RPMI7951) [%],cleaved PARP positive nuclei fraction (RVH-421) [%],cleaved PARP positive nuclei fraction (SkMel28) [%],cleaved PARP positive nuclei fraction (SkMel2) [%],cleaved PARP positive nuclei fraction (SkMel30) [%],cleaved PARP positive nuclei fraction (UACC62) [%],cleaved PARP positive nuclei fraction (SkMel5) [%],cleaved PARP positive nuclei fraction (UACC257) [%]
"Cn1cc(C2=C(c3cn(C4CCN(Cc5ccccn5)CC4)c4ccccc34)C(=O)NC2=O)c2ccccc21 [Enzastaurin] + Cn1c(Nc2ccc(C(F)(F)F)cc2)nc2cc(Oc3ccnc(-c4ncc(C(F)(F)F)[nH]4)c3)ccc21 [CHIR265] (first compound 0.8 µM, partner dose 0.08 µM)",96.9,85.7,79.4,177,101,141,100,116,,
"C[C@@H](Oc1cc(-c2cnn(C3CCNCC3)c2)cnc1N)c1c(Cl)ccc(F)c1Cl [Crizotinib] + Cc1cc(SCc2sc(-c3ccc(C(F)(F)F)c(F)c3)nc2C)ccc1OCC(=O)O [GW0742] (first compound 0.2 µM, partner dose 2 µM)",58.4,124,65.4,39.9,204,154,46,93.9,159,132
